According to the supplement of paper PMC12067093, “Discovery and optimisation of a covalent ligand for TRIM25 and its application to targeted protein ubiquitination” (Chemical Science, 2025):
Some of the results follow.

The chains behind the UniProt entries cited, without tags or fusion partners. Where a name states a change or a piece, a line headed by the entry shows the natural chain unless it says otherwise.
UniProt P49588, whole entry, looked up: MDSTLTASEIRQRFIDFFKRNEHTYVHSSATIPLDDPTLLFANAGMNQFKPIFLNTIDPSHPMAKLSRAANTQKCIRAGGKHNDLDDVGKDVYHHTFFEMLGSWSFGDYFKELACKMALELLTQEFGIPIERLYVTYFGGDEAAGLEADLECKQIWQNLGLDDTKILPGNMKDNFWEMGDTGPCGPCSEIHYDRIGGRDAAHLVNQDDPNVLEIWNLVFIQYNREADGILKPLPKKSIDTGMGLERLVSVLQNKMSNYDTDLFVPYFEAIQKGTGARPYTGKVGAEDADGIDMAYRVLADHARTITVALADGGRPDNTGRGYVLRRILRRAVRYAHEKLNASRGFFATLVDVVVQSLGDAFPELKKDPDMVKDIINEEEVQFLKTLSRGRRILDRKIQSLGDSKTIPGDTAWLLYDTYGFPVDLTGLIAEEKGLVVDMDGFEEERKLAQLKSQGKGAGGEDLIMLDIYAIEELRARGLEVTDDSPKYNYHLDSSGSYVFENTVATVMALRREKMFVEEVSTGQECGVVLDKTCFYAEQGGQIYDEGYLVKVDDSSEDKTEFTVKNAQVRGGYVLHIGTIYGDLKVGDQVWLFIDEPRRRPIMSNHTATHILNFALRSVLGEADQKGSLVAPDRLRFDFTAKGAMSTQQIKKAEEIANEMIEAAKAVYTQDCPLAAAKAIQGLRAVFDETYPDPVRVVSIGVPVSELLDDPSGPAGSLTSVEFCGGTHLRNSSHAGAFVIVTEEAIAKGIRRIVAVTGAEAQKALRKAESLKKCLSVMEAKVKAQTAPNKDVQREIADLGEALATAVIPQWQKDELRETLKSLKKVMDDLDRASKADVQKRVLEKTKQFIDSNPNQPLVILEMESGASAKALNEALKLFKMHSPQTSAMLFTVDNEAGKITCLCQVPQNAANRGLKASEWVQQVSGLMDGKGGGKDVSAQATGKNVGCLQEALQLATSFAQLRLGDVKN
UniProt P42765: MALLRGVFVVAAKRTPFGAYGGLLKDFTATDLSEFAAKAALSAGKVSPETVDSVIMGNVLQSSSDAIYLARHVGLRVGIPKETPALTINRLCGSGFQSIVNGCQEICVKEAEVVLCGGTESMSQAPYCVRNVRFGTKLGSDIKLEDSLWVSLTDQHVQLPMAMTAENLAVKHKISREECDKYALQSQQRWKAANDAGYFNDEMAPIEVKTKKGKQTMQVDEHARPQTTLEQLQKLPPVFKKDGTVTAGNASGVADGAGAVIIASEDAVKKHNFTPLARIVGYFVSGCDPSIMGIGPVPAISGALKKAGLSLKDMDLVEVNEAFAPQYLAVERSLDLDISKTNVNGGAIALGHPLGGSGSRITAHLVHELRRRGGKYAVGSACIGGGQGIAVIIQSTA
UniProt Q9H3P7: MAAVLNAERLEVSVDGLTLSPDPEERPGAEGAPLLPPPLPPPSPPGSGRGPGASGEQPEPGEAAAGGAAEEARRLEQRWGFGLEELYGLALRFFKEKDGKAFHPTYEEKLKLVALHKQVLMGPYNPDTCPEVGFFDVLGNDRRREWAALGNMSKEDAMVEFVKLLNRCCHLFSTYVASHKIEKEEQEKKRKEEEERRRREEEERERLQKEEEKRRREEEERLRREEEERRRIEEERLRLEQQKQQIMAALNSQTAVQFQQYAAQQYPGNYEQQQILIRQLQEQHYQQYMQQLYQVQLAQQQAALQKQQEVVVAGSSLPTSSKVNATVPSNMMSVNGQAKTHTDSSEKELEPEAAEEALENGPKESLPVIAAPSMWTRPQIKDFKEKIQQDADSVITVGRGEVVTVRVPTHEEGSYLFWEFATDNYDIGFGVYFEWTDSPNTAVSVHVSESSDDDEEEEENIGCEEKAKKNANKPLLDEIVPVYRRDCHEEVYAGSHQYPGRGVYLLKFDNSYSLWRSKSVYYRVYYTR
UniProt P09110: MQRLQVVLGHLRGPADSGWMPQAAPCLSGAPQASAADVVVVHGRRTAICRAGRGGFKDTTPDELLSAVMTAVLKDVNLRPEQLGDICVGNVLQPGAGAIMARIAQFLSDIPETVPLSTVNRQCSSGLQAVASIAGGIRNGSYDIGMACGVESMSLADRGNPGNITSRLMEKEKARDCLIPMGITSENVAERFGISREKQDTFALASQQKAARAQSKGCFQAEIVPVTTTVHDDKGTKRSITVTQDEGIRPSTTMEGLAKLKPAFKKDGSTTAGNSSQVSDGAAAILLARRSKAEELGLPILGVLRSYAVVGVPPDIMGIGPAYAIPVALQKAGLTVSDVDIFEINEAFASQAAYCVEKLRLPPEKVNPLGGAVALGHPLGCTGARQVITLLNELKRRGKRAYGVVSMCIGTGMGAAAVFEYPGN
UniProt Q5VST6: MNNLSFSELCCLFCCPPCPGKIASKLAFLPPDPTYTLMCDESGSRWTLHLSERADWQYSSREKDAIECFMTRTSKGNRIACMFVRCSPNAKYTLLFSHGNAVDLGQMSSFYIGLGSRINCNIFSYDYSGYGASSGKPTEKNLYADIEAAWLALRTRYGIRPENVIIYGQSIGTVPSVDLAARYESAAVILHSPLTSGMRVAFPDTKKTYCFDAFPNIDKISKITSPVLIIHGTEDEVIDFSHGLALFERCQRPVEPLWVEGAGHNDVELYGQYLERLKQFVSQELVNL
UniProt Q9NRN7: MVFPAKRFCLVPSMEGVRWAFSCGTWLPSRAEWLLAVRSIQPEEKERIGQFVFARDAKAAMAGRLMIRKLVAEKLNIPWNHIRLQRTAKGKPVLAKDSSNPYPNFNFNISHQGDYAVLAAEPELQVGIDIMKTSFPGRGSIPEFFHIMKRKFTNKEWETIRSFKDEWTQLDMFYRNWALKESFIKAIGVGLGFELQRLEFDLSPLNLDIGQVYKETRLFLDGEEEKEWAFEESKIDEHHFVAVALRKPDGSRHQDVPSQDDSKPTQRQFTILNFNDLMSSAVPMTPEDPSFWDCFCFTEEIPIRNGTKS
UniProt P21399: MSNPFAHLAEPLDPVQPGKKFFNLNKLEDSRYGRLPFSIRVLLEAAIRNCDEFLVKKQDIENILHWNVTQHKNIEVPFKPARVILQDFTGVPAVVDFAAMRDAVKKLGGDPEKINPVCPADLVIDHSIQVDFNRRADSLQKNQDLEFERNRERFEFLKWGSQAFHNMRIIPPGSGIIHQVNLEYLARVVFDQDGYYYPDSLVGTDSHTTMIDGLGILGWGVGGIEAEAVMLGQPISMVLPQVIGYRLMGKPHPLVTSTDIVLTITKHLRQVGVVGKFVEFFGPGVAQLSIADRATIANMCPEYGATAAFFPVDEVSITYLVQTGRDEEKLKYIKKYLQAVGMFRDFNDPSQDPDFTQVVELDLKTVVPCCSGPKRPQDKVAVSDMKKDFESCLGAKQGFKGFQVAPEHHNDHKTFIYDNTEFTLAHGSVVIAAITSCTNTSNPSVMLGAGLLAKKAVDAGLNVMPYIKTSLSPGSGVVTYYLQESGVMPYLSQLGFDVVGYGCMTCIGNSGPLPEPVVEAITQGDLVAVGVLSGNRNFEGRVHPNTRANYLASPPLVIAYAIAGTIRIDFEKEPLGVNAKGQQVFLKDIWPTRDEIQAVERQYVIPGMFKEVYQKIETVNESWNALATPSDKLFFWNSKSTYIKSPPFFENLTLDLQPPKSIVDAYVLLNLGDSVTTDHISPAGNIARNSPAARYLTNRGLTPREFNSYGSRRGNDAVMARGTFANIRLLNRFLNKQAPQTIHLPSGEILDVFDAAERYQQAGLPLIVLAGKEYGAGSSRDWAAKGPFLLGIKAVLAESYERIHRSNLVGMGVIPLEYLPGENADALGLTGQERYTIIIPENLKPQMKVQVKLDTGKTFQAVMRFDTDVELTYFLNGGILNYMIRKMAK
UniProt Q9P1F3: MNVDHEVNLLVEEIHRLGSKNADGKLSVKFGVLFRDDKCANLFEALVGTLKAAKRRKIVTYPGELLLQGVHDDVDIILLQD
UniProt Q9NRG9: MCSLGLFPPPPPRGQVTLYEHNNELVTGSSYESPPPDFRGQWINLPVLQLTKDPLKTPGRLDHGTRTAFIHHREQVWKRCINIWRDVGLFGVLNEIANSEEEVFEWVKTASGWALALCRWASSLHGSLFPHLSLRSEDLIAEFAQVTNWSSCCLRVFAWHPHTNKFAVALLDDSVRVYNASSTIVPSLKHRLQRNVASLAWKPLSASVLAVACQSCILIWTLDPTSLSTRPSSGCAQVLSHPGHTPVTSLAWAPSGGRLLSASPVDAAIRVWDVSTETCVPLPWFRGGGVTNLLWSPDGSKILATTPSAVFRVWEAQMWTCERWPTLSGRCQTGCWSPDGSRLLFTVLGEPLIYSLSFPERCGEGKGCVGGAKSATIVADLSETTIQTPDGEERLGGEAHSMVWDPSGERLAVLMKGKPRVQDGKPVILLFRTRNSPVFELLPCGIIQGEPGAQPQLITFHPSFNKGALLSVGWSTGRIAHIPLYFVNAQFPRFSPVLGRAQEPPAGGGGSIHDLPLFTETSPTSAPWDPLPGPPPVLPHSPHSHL
UniProt P24752: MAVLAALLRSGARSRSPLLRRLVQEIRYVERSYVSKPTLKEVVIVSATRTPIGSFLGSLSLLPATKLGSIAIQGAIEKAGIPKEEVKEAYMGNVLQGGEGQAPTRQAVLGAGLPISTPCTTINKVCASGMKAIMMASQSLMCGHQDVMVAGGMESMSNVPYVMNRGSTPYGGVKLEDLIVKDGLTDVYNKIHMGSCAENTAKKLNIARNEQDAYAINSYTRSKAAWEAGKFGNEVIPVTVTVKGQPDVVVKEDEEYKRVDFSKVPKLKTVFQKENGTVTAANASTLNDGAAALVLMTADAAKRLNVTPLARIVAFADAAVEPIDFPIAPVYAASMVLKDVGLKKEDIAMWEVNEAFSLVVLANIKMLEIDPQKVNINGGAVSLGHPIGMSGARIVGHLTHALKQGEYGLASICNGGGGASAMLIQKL
UniProt P16219: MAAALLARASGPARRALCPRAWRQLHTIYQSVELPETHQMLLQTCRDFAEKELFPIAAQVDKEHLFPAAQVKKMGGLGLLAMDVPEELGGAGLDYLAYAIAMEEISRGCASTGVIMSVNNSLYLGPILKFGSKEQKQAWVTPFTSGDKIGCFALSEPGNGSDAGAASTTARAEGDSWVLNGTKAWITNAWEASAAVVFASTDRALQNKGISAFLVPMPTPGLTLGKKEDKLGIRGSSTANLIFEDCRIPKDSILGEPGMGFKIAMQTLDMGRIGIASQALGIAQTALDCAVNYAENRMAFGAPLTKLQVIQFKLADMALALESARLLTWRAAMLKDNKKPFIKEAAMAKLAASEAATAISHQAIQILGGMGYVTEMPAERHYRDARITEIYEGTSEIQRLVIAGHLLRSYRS
UniProt O00154: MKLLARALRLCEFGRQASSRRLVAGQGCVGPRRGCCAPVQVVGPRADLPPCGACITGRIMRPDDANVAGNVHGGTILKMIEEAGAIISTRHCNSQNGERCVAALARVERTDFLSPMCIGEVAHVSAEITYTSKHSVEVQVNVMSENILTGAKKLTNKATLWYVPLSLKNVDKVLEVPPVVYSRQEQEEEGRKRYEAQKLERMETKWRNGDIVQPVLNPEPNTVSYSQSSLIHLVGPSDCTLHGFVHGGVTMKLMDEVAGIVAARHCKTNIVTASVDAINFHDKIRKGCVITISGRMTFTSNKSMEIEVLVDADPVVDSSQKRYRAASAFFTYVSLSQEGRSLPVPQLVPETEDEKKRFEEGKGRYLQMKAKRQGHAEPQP
UniProt Q8NE71: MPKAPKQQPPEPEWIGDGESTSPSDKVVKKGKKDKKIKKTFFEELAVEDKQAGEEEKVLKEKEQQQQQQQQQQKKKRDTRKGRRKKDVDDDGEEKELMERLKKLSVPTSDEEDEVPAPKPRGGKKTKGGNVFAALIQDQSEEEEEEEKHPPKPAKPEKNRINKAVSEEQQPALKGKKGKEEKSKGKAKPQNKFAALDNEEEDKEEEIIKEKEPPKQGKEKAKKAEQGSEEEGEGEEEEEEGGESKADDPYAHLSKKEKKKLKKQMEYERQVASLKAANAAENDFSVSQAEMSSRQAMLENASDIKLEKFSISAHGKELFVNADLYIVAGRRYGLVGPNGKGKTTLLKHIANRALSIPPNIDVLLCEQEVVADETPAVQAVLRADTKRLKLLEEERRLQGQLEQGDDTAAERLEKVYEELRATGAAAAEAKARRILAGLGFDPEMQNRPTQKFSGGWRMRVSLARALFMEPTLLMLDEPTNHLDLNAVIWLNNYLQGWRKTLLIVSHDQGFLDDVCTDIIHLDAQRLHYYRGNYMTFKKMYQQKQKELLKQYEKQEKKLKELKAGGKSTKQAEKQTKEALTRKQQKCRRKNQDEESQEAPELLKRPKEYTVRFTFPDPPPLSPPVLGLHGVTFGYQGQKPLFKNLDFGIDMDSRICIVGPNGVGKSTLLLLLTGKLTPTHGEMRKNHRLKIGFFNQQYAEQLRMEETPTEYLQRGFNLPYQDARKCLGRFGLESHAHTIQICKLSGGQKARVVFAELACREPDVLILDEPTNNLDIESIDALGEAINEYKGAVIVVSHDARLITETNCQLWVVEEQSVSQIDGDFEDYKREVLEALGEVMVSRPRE

Compound: Cc1cc(ccc1-c1ccccc1)C(=O)N1CCCN(CC1)C(=O)CCl [compound 10]
Test: probe-labelled cysteine peptide fold change vs DMSO (competition) (log2 fold change); higher = less target engagement (more negative = stronger competition)
Conditions: THP-1, incubation time: 4 h
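Also: competitive profiling in live THP-1 cells: cysteine peptides tagged with an iodoacetamide desthiobiotin (IA-DTB) probe, intensity after compound treatment relative to DMSO-treated cells.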

Target | probe-labelled cysteine peptide fold change (10 µM) | probe-labelled cysteine peptide fold change (50 µM)
ACAT2_Q9BWD1_65_ATVAPEDVSEVIFGHVLAAGCGQNPVR (UniProt Q9BWD1) | -0.23 | 0.0508
ABI1_Q8IZP0_488_KNDDGWYEGVCNR (UniProt Q8IZP0) | 0.0255 | 0.013
AARS_P49588_671_AVYTQDCPLAAAK (UniProt P49588) | 0.0633 | 0.0515
AARS_P49588_947_NVGCLQEALQLATSFAQLR (UniProt P49588) | 0.375 | -0.0464
ACAA2_P42765_116+128_EAEVVLCGGTESMSQAPYCVR (UniProt P42765) | -0.0657 | -0.464
ACAA2_P42765_116_EAEVVLCGGTESMSQAPYCVR (UniProt P42765) | -0.0523 | 0.00696
ACBD3_Q9H3P7_487_DCHEEVYAGSHQYPGR (UniProt Q9H3P7) | -0.106 | 0.0813
ACACA_Q13085_1230_MSFSSNLNHYGMTHVASVSDVLLDNSFTPPCQR (UniProt Q13085) | 0.0438 | -0.0741
ACAA1_P09110_177_DCLIPMGITSENVAER (UniProt P09110) | -0.246 | -0.141
ABCE1_P61221_65_CPFGALSIVNLPSNLEK (UniProt P61221) | -0.2 | -0.351
ABL2_P42684_266_CNKPTVYGVSPIHDK (UniProt P42684) | 0.117 | 0.413
ABHD17B_Q5VST6_68_DAIECFMTR (UniProt Q5VST6) | 0.112 | 0.0179
AASDHPPT_Q9NRN7_23_WAFSCGTWLPSR (UniProt Q9NRN7) | 0.0877 | -0.0132
ACO1_P21399_392_DFESCLGAK (UniProt P21399) | -0.168 | -0.169
AARS_P49588_184+187_DNFWEMGDTGPCGPCSEIHYDR (UniProt P49588) | 0.108 | -0.387
ABRACL_Q9P1F3_39_CANLFEALVGTLK (UniProt Q9P1F3) | 0.0698 | -0.0903
ACAT2_Q9BWD1_158_IGEMPLTDSILCDGLTDAFHNCHMGITAENVAK (UniProt Q9BWD1) | -0.0316 | -0.347
ABHD6_Q9BV23_217_IPLIPSTPEEMSEMLQLCSYVR (UniProt Q9BV23) | 0.243 | 0.359
ABHD17B_Q5VST6_250_CQRPVEPLWVEGAGHNDVELYGQYLER (UniProt Q5VST6) | 0.198 | 0.147
ACAA2_P42765_287_IVGYFVSGCDPSIMGIGPVPAISGALK (UniProt P42765) | 0.0345 | 0.0187
AAAS_Q9NRG9_279_VWDVSTETCVPLPWFR (UniProt Q9NRG9) | 0.363 | 0.199

Target | probe-labelled cysteine peptide fold change (10 µM) | probe-labelled cysteine peptide fold change (50 µM)
AAAS_Q9NRG9_321_VWEAQMWTCER (UniProt Q9NRG9) | -0.206 | -0.073
ACAT1_P24752_413_QGEYGLASICNGGGGASAMLIQK (UniProt P24752) | -0.164 | -1.09
ABCD3_P28288_477_SGANVLICGPNGCGK (UniProt P28288) | 0.727 | 0.0817
ACAD9_Q9H845_271_GSNTCEVHFENTK (UniProt Q9H845) | 0.0883 | 0.106
ABCE1_P61221_227_FACAVVCIQK (UniProt P61221) | -0.0881 | -0.36
ACADS_P16219_109_GCASTGVIMSVNNSLYLGPILK (UniProt P16219) | 0.363 | 0.27
AARS2_Q5JTZ9_750_VVSVGVPVAHALDPASQAALQTSVELCCGTHLLR (UniProt Q5JTZ9) | 0.259 | -0.431
ABCC1_P33527_1047_CLHVDLLHSILR (UniProt P33527) | -0.245 | -0.823
AAAS_Q9NRG9_335_CQTGCWSPDGSR (UniProt Q9NRG9) | 0.565 | 0.657
ACAT1_P24752_196_IHMGSCAENTAK (UniProt P24752) | -0.282 | -1.22
ACO1_P21399_118_INPVCPADLVIDHSIQVDFNRR (UniProt P21399) | -0.172 | -0.162
ABHD12_Q8N2K0_323_HISCPLLILHAEDDPVVPFQLGR (UniProt Q8N2K0) | 0.128 | 0.089
AARS_P49588_533_TCFYAEQGGQIYDEGYLVK (UniProt P49588) | -0.3 | 0.0208
AAK1_Q2M2I8_250_ADIWALGCLLYK (UniProt Q2M2I8) | 0.186 | 0.432
ACACA_Q13085_378_DCSVQR (UniProt Q13085) | 0.0953 | -0.0564
ACOT7_O00154_288_KGCVITISGR (UniProt O00154) | 0.00543 | -0.136
ACLY_P53396_845_KPASFMTSICDER (UniProt P53396) | 0.0439 | 0.129
ACBD3_Q9H3P7_168_CCHLFSTYVASHK (UniProt Q9H3P7) | -0.0129 | 0.0177
ABCF1_Q8NE71_758_VVFAELACR (UniProt Q8NE71) | 0.145 | 0.239
ACAT2_Q9BWD1_148+158_IGEMPLTDSILCDGLTDAFHNCHMGITAENVAK (UniProt Q9BWD1) | -0.165 | -0.295
